{"source": "patent US12006373B1", "about": "(Board of Trustees of the University of Alabama, for and on …, priority 2020, dated 2024)", "assay": "peptide made by a vendor (Fmoc solid-phase peptide synthesis)", "settings": "whole synthesis"}
{"substance": "WSLGYTGGGGS-PEG6-K-Biotin", "values": [{"measurement": "purity (crude or final not stated)", "value": ">98", "unit": "% purity"}]}
